# The supplement of paper PMC12067093, “Discovery and optimisation of a covalent ligand for TRIM25 and its application to targeted protein ubiquitination” (Chemical Science, 2025)
# The list shows a part of the results.
# Compound: CC1Cc2ccccc2N1C(=O)C1CCCN(C1)C(=O)CCl (mixture of isomers) [TRIM25 ligand 11 (diastereomer mixture)]
# Assay: probe-labelled cysteine peptide fold change vs DMSO (competition) (log2 fold change); higher = less target engagement (more negative = stronger competition)
# Settings: 10 µM; THP-1; incubation time: 4 h
# 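Note: competitive chemoproteomic profiling in live THP-1 cells with an iodoacetamide desthiobiotin (IA-DTB) probe, comparing probe-labelled peptide intensities in compound-treated cells against DMSO-treated controls.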
row,Target,probe-labelled cysteine peptide fold change
1,PAK1IP1_Q9NWT1_237_FFDCDSLVCLCEFK (UniProt Q9NWT1),-0.0714
2,P4HB_P07237_53_YLLVEFYAPWCGHCK (UniProt P07237),-0.313
3,PAK3_O75914_424_LTDFGFCAQITPEQSKR (UniProt O75914),-0.27
4,P3H1_Q32P28_600_DDSHPVHVDNCILNAETLVCVK (UniProt Q32P28),0.176
5,PADI2_Q9Y2J8_647_FLGEVHCGTNVR (UniProt Q9Y2J8),-0.149
6,PACSIN2_Q9UNF0_44_LCSDLMNCLHER (UniProt Q9UNF0),-0.109
7,OXSM_Q9NWU1_327_CMAAALK (UniProt Q9NWU1),0.00932
8,PALD1_Q9ULE6_631_IPMPDFCAPREEDFDQLLEALR (UniProt Q9ULE6),0.052
9,P3H1_Q32P28_568_LDTPLYFSYSHLVCR (UniProt Q32P28),-0.0496
10,OPLAH_O14841_253_YVQGFCR (UniProt O14841),-0.0062
11,PAFAH1B1_P43034_184_LWDFQGFECIR (UniProt P43034),0.279
12,PAPSS2_O95340_155_KIHESAGLPFFEIFVDAPLNICESR (UniProt O95340),-0.0298
13,OSBPL9_Q96SU4_720_LFHEDGECWVYDEPLLK (UniProt Q96SU4),-0.083
14,PARP10_Q53GL7_50_LGCGGVLTFR (UniProt Q53GL7),0.0678
15,PAICS_P22234_281_VVVLMGSTSDLGHCEK (UniProt P22234),0.0699
16,PACSIN2_Q9UNF0_163_AHHAACK (UniProt Q9UNF0),-0.00432
17,P4HA1_P13674_293_QKYEMLCR (UniProt P13674),-0.0868
18,OXR1_Q8N573_471_ENMPCGETAEFK (UniProt Q8N573),-0.114

row,Target,probe-labelled cysteine peptide fold change
1,P3H1_Q32P28_483_VVMDGVISDHECQELQR (UniProt Q32P28),0.223
2,OPTN_Q96CV9_8_SHQPLSCLTEK (UniProt Q96CV9),0.154
3,PAICS_P22234_91+100_CGETAFIAPQCEMIPIEWVCR (UniProt P22234),-0.0313
4,PARP12_Q9H0J9_195_FGTSCK (UniProt Q9H0J9),0.0637
5,PARP10_Q53GL7_768_GDCTILR (UniProt Q53GL7),-0.126
6,PAIP1_Q9H074_358_IENVVLDANCSR (UniProt Q9H074),0.0975
7,OXCT1_P55809_235_NFNLPMCK (UniProt P55809),-0.0373
8,OTUB1_Q96FW1_212_EFCQQEVEPMCK (UniProt Q96FW1),0.0465
9,OSGEP_Q9NPF4_265_AMAHCGSQEALIVGGVGCNVR (UniProt Q9NPF4),0.000797
10,PAPOLA_P51003_36_ETDCVLTQK (UniProt P51003),-0.114
11,P3H1_Q32P28_591+600_KDDSHPVHVDNCILNAETLVCVK (UniProt Q32P28),0.0651
12,OSBP_P22059_517_SLCEQVSHHPPAAAHHAESK (UniProt P22059),0.0939
13,OPLAH_O14841_466_VANEAMCRPIR (UniProt O14841),0.0549
14,OLA1_Q9NTK5_117_GAHNGQGLGNAFLSHISACDGIFHLTR (UniProt Q9NTK5),0.114
15,PARK7_Q99497_46_DPVQCSR (UniProt Q99497),0.105
16,ORC4_O43929_152_TSSCPVIFILDEFDLFAHHK (UniProt O43929),0.256
17,OSGEPL1_Q9H4B0_390_CPLGVDISK (UniProt Q9H4B0),-0.0159
18,PA2G4_Q9UQ80_87_KGIAFPTSISVNNCVCHFSPLK (UniProt Q9UQ80),0.00883

# Same assay, conditions: 50 µM; THP-1; incubation time: 4 h
row,Target,probe-labelled cysteine peptide fold change
1,PAK1IP1_Q9NWT1_237_FFDCDSLVCLCEFK (UniProt Q9NWT1),0.244
2,P4HB_P07237_53_YLLVEFYAPWCGHCK (UniProt P07237),-0.54
3,PAK3_O75914_424_LTDFGFCAQITPEQSKR (UniProt O75914),-0.161
4,P3H1_Q32P28_600_DDSHPVHVDNCILNAETLVCVK (UniProt Q32P28),0.308
5,PADI2_Q9Y2J8_647_FLGEVHCGTNVR (UniProt Q9Y2J8),-0.115
6,PACSIN2_Q9UNF0_44_LCSDLMNCLHER (UniProt Q9UNF0),-0.0429
7,OXSM_Q9NWU1_327_CMAAALK (UniProt Q9NWU1),0.00745
8,PALD1_Q9ULE6_631_IPMPDFCAPREEDFDQLLEALR (UniProt Q9ULE6),0.057
9,P3H1_Q32P28_568_LDTPLYFSYSHLVCR (UniProt Q32P28),0.112
10,OPLAH_O14841_253_YVQGFCR (UniProt O14841),0.0603
11,PAFAH1B1_P43034_184_LWDFQGFECIR (UniProt P43034),-0.0871
12,PAPSS2_O95340_155_KIHESAGLPFFEIFVDAPLNICESR (UniProt O95340),-0.464
13,OSBPL9_Q96SU4_720_LFHEDGECWVYDEPLLK (UniProt Q96SU4),-0.21
14,PARP10_Q53GL7_50_LGCGGVLTFR (UniProt Q53GL7),-0.0422
15,PAICS_P22234_281_VVVLMGSTSDLGHCEK (UniProt P22234),-0.107
16,PACSIN2_Q9UNF0_163_AHHAACK (UniProt Q9UNF0),0.0373
17,P4HA1_P13674_293_QKYEMLCR (UniProt P13674),-0.162
18,OXR1_Q8N573_471_ENMPCGETAEFK (UniProt Q8N573),-0.146

row,Target,probe-labelled cysteine peptide fold change
1,P3H1_Q32P28_483_VVMDGVISDHECQELQR (UniProt Q32P28),0.0914
2,OPTN_Q96CV9_8_SHQPLSCLTEK (UniProt Q96CV9),-0.219
3,PAICS_P22234_91+100_CGETAFIAPQCEMIPIEWVCR (UniProt P22234),-0.0795
4,PARP12_Q9H0J9_195_FGTSCK (UniProt Q9H0J9),0.0773
5,PARP10_Q53GL7_768_GDCTILR (UniProt Q53GL7),0.0246
6,PAIP1_Q9H074_358_IENVVLDANCSR (UniProt Q9H074),0.122
7,OXCT1_P55809_235_NFNLPMCK (UniProt P55809),-0.144
8,OTUB1_Q96FW1_212_EFCQQEVEPMCK (UniProt Q96FW1),-0.11
9,OSGEP_Q9NPF4_265_AMAHCGSQEALIVGGVGCNVR (UniProt Q9NPF4),-0.0313
10,PAPOLA_P51003_36_ETDCVLTQK (UniProt P51003),-0.162
11,P3H1_Q32P28_591+600_KDDSHPVHVDNCILNAETLVCVK (UniProt Q32P28),-0.167
12,OSBP_P22059_517_SLCEQVSHHPPAAAHHAESK (UniProt P22059),-0.0693
13,OPLAH_O14841_466_VANEAMCRPIR (UniProt O14841),0.0439
14,OLA1_Q9NTK5_117_GAHNGQGLGNAFLSHISACDGIFHLTR (UniProt Q9NTK5),-0.139
15,PARK7_Q99497_46_DPVQCSR (UniProt Q99497),0.0666
16,ORC4_O43929_152_TSSCPVIFILDEFDLFAHHK (UniProt O43929),0.0467
17,OSGEPL1_Q9H4B0_390_CPLGVDISK (UniProt Q9H4B0),-0.106
18,PA2G4_Q9UQ80_87_KGIAFPTSISVNNCVCHFSPLK (UniProt Q9UQ80),-0.396
